In US11433099B2, “Immunotherapy with B*08 restricted peptides and combination of peptides against cancers and related methods” (Immatics Biotechnologies GmbH, priority 2018, dated 2022):

Tests used:
[1] = system: HLA peptide pools from tumor and normal tissue samples; experiment: Identification and relative LC-MS quantitation of HLA-presented tumor associated peptides (presentation profiles); design: species or system human
[2] = system: source genes (mRNA) in tumor and normal tissue samples; experiment: Expression profiling (RNASeq) of genes encoding the peptides; design: species or system human; conditions: for Gene Expression in tumor samples: Highly over-expressed (++) / Gene Expression in tumor samples: over-expressed (+): RNASeq, tumors vs panel of normal tissues, value = tumor entities in this class
[3] = cancer entities on which the peptide was found presented (Table 8A), value = entity abbreviations

138: peptide found in GRIN2D (gene looked up) (TQHLTVATL; listed as Homo sapiens) [compound 138]
Peptide Presentation on cancer entities [1, 3]: NSCLCsquam, OC | Gene Expression in tumor samples: Highly over-expressed (++) [2]: CRC, GC, UBC | Gene Expression in tumor samples: over-expressed (+) [2]: GBC, GBM, HNSCC, MEL, NSCLCadeno, NSCLCsquam, OSCAR, PACA, SCLC, UEC

139: peptide found in NPFFR2 (gene looked up) (YGRIGISLF; listed as Homo sapiens) [compound 139]
Peptide Presentation on cancer entities [1, 3]: HNSCC, NSCLCadeno | Gene Expression in tumor samples: Highly over-expressed (++) [2]: HCC | Gene Expression in tumor samples: over-expressed (+) [2]: GBC

142: peptide found in SUCNR1 (gene looked up) (YNLIYSMCL; listed as Homo sapiens) [compound 142]
Peptide Presentation on cancer entities [1, 3]: NSCLCadeno | Gene Expression in tumor samples: Highly over-expressed (++) [2]: CCC | Gene Expression in tumor samples: over-expressed (+) [2]: AML

145: peptide found in ABCC4 (gene looked up) (MIYRKALRL; listed as Homo sapiens) [compound 145]
Peptide Presentation on cancer entities [1, 3]: NHL | Gene Expression in tumor samples: Highly over-expressed (++) [2]: PRCA

146: peptide found in PTPRZ1 (gene looked up) (FQTAHFYL; listed as Homo sapiens) [compound 146]
Peptide Presentation on cancer entities [1, 3]: MEL | Gene Expression in tumor samples: Highly over-expressed (++) [2]: GBM

149: peptide found in PTPRZ1 (gene looked up) (TQKSVQVL; listed as Homo sapiens) [compound 149]
Peptide Presentation on cancer entities [1, 3]: GBM | Gene Expression in tumor samples: Highly over-expressed (++) [2]: GBM

150: peptide found in PGR (gene looked up) (MRSSYIREL; listed as Homo sapiens) [compound 150]
Peptide Presentation on cancer entities [1, 3]: UEC | Gene Expression in tumor samples: Highly over-expressed (++) [2]: UEC | Gene Expression in tumor samples: over-expressed (+) [2]: BRCA

152: peptide found in APOB (gene looked up) (FNKLVTEL; listed as Homo sapiens) [compound 152]
Peptide Presentation on cancer entities [1, 3]: CCC, HCC | Gene Expression in tumor samples: Highly over-expressed (++) [2]: HCC

153: peptide found in GPR143 (gene looked up) (HAIPHYVTM; listed as Homo sapiens) [compound 153]
Peptide Presentation on cancer entities [1, 3]: MEL | Gene Expression in tumor samples: Highly over-expressed (++) [2]: MEL

154: peptide found in APOB (gene looked up) (VLKTLQEL; listed as Homo sapiens) [compound 154]
Peptide Presentation on cancer entities [1, 3]: CCC, HCC | Gene Expression in tumor samples: Highly over-expressed (++) [2]: HCC

157: peptide found in MCOLN2 (gene looked up) (QPYRFPQA; listed as Homo sapiens) [compound 157]
Peptide Presentation on cancer entities [1, 3]: HNSCC | Gene Expression in tumor samples: Highly over-expressed (++) [2]: CLL, NHL

161: peptide found in FOLH1 (gene looked up) (DIVPPFSAF; listed as Homo sapiens) [compound 161]
Peptide Presentation on cancer entities [1, 3]: CCC, MEL, OSCAR, UBC | Gene Expression in tumor samples: Highly over-expressed (++) [2]: PRCA

167: peptide found in HAVCR1 (gene looked up) (DMKITVSL; listed as Homo sapiens) [compound 167]
Peptide Presentation on cancer entities [1, 3]: CCC | Gene Expression in tumor samples: over-expressed (+) [2]: RCC

168: peptide found in ABCC4 (gene looked up) (HVQDFTAF; listed as Homo sapiens) [compound 168]
Peptide Presentation on cancer entities [1, 3]: NSCLCsquam | Gene Expression in tumor samples: over-expressed (+) [2]: PRCA

176: peptide found in ROS1 (gene looked up) (YVIQRQSVL; listed as Homo sapiens) [compound 176]
Peptide Presentation on cancer entities [1, 3]: NSCLCother | Gene Expression in tumor samples: over-expressed (+) [2]: NSCLCadeno, NSCLCother, NSCLCsquam

178: peptide found in ADCY8 (gene looked up) (IPRLAVISI; listed as Homo sapiens) [compound 178]
Peptide Presentation on cancer entities [1, 3]: GBM | Gene Expression in tumor samples: over-expressed (+) [2]: GBM

182: peptide found in HTR1F (gene looked up) (ILHLSAIAL; listed as Homo sapiens) [compound 182]
Peptide Presentation on cancer entities [1, 3]: BRCA | Gene Expression in tumor samples: over-expressed (+) [2]: AML

183: peptide found in MET (gene looked up) (YVSKPGAQL; listed as Homo sapiens) [compound 183]
Peptide Presentation on cancer entities [1, 3]: GBC | Gene Expression in tumor samples: over-expressed (+) [2]: CCC, GBC, NSCLCadeno

187: peptide found in LPAR4 (gene looked up) (VPYNSVLF; listed as Homo sapiens) [compound 187]
Peptide Presentation on cancer entities [1, 3]: MEL | Gene Expression in tumor samples: over-expressed (+) [2]: AML, GBM

197: peptide found in BRIP1 (gene looked up) (YKAYPSQL; listed as Homo sapiens) [compound 197]
Peptide Presentation on cancer entities [1, 3]: NSCLCadeno | Gene Expression in tumor samples: over-expressed (+) [2]: CRC, NHL, NSCLCother, NSCLCsquam, OSCAR, SCLC

206: peptide found in ABCB5 (gene looked up) (MEFPNKFNTL; listed as Homo sapiens) [compound 206]
Peptide Presentation on cancer entities [1, 3]: MEL | Gene Expression in tumor samples: over-expressed (+) [2]: MEL

218: peptide found in HPGDS (gene looked up) (DNHPRLVTL; listed as Homo sapiens) [compound 218]
Peptide Presentation on cancer entities [1, 3]: MEL | Gene Expression in tumor samples: over-expressed (+) [2]: AML

219: peptide found in ABCB5 (gene looked up) (VRNPKILIL; listed as Homo sapiens) [compound 219]
Peptide Presentation on cancer entities [1, 3]: CCC, CLL, GBM, HCC, MEL, NHL, NSCLCadeno, NSCLCsquam, PACA, PRCA, RCC, UEC | Gene Expression in tumor samples: over-expressed (+) [2]: MEL

229: peptide found in SLC12A2 (gene looked up) (DTHTNTYYL; listed as Homo sapiens) [compound 229]
Peptide Presentation on cancer entities [1, 3]: HNSCC | Gene Expression in tumor samples: over-expressed (+) [2]: CRC

231: peptide found in SLC12A2 (gene looked up) (GEKLLRPSL; listed as Homo sapiens) [compound 231]
Peptide Presentation on cancer entities [1, 3]: HNSCC | Gene Expression in tumor samples: over-expressed (+) [2]: CRC

246: peptide found in ADAMTS12 (gene looked up) (RLLQKSKEL; listed as Homo sapiens) [compound 246]
Peptide Presentation on cancer entities [1, 3]: BRCA, CCC, HNSCC, NSCLCadeno, NSCLCsquam, SCLC, UBC | Gene Expression in tumor samples: over-expressed (+) [2]: BRCA, CCC, CRC, GBC, GC, HNSCC, NSCLCadeno, NSCLCother, NSCLCsquam, OSCAR, PACA. UBC

247: peptide found in DLL3 (gene looked up) (TPEPSVHAL; listed as Homo sapiens) [compound 247]
Peptide Presentation on cancer entities [1, 3]: NSCLCother | Gene Expression in tumor samples: Highly over-expressed (++) [2]: GBM, MEL, SCLC

290: peptide found in KLK3 (gene looked up) (EEFLTPKKL; listed as Homo sapiens) [compound 290]
Peptide Presentation on cancer entities ([1]; Table 8, cancer entities on which the peptide was presented): PRCA | Gene Expression in tumor samples: very highly over-expressed (+++) ([2]; Table 9B, tumor entities versus panel of normal tissues): PRCA

For part of these data: Expression grades refer to the transcript from which the peptide derives; gene names, where given, were looked up from the sequence.
